Laboratory results: publication PMC10582078
Residue numbers refer to the chain shown, from its start. Results are given in words; binding and its absence hold for the method and conditions named. Binding seen in cells or lysates may run through a third protein. Some binding calls cover weakened binding; strength is not graded here. Tags and fused reporters may be left off the sequences shown.

Key:
[1] = target: T1, NF-L^4A-myc-6xHis (all four head-domain glycosites changed to alanine) (human) (UniProt P07196); test: co-IP; NEFL-/- 293T cells transfected 48 h with NF-L-myc-6xHis (WT, 4A or 5A) ± INA ± OGT-3xFLAG; myc IP, IB with INA antibody; lysis buffer 20 mM Tris-HCl pH 7.4, 1% Triton X-100, 0.1% SDS, 150 mM NaCl, 1 mM EDTA; 4 °C
T1 sequence: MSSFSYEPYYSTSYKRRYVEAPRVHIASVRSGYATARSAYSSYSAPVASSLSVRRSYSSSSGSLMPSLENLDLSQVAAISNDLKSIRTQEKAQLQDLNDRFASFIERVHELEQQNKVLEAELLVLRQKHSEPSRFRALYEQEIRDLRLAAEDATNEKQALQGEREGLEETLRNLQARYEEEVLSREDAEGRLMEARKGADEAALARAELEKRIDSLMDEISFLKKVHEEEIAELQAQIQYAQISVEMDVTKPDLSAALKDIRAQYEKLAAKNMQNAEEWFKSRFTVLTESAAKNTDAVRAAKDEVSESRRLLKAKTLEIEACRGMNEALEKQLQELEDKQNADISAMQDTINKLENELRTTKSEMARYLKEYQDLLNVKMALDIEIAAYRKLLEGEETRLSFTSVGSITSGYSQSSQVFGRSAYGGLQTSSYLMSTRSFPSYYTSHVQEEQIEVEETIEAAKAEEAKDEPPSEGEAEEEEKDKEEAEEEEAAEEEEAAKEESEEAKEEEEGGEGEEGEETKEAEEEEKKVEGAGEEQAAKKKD

[2] = target: T2, NF-L^5A-myc-6xHis (compound mutant lacking the four head and one tail domain glycosites) (human) (UniProt P07196); test: as above
T2 sequence: T1 sequence with S431A

binding [1]: binds
binding [2]: binds
B1: α-internexin (INA), transfected (protein, UniProt Q16352 1-499)
chain: MSFGSEHYLCSSSSYRKVFGDGSRLSARLSGAGGAGGFRSQSLSRSNVASSAACSSASSLGLGLAYRRPPASDGLDLSQAAARTNEYKIIRTNEKEQLQGLNDRFAVFIEKVHQLETQNRALEAELAALRQRHAEPSRVGELFQRELRDLRAQLEEASSARSQALLERDGLAEEVQRLRARCEEESRGREGAERALKAQQRDVDGATLARLDLEKKVESLLDELAFVRQVHDEEVAELLATLQASSQAAAEVDVTVAKPDLTSALREIRAQYESLAAKNLQSAEEWYKSKFANLNEQAARSTEAIRASREEIHEYRRQLQARTIEIEGLRGANESLERQILELEERHSAEVAGYQDSIGQLENDLRNTKSEMARHLREYQDLLNVKMALDIEIAAYRKLLEGEETRFSTSGLSISGLNPLPNPSYLLPPRILSATTSKVSSTGLSLKKEEEEEEASKVASKKTSQIGESFEEILEETVISTKKTEKSNIEETTISSQKI
